Measurements as given in paper PMC3711430.
These are yes or no findings as the source states them, for the method shown. Binding seen in cells or lysates may run through a third protein. Some results given as binding are weak or reduced against the parent protein; the word gives no strength.

The chains behind the UniProt entries cited, without tags or fusion partners.
UniProt Q9DEY9: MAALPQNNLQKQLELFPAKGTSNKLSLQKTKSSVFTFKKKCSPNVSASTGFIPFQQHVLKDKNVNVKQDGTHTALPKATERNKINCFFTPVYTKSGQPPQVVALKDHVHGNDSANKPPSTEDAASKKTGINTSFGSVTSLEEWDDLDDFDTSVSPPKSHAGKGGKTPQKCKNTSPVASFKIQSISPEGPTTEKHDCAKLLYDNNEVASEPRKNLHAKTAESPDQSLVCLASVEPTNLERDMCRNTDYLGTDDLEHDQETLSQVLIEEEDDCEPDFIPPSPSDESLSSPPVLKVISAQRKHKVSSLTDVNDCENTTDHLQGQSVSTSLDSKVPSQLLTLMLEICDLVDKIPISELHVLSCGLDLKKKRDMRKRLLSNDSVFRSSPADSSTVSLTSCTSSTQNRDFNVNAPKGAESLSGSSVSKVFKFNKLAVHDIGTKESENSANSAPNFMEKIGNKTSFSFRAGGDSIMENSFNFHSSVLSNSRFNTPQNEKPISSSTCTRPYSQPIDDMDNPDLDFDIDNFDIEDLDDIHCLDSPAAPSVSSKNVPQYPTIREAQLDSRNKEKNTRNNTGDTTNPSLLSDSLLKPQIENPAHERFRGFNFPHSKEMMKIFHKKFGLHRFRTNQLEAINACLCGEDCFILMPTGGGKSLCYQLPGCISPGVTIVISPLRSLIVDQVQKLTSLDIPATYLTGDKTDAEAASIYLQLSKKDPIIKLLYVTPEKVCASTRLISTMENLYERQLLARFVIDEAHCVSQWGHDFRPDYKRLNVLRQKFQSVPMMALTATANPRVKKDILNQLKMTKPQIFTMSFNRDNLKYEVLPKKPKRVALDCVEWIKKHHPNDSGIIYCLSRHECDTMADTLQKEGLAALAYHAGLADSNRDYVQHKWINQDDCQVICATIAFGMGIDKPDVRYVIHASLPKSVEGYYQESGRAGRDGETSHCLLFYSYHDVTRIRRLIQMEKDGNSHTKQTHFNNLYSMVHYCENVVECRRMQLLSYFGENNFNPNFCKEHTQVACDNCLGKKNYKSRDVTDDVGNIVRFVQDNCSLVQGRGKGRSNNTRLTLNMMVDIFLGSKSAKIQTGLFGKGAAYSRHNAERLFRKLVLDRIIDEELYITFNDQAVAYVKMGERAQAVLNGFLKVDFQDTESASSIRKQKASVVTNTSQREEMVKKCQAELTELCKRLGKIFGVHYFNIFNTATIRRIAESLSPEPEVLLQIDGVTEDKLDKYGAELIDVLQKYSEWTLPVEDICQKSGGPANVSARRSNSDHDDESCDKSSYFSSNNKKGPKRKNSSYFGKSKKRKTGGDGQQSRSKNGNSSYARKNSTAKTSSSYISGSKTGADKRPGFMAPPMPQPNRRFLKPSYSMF

Target: Xenopus BLM (Bloom's helicase) (Xenopus laevis (endogenous in egg extracts)) (UniProt Q9DEY9)
Assay: co-IP; Xenopus S-phase egg extracts, mock- or FANCD2-depleted, DNA-free or incubated with dsDNA fragments for 10 min; BLM antibody on Sepharose 4B beads, overnight at 4°C; IP buffer 10 mM Tris pH 7.4, 150 mM NaCl, 1% NP-40, 0.5% sodium deoxycholate, 1 mM EDTA, 1 mM DTT; western blot

- binding: binds
B1: Xenopus RMI1 (protein, UniProt Q6DDH2 1-557)
chain: MMATSGIANRVKTWLISTWHVKVPDPWLEACINWIQEENGSSLLQAEINKQVFEQWLLTDLRDLEFPVLPANITDSLKCELNGFHAVQMDSLVDISLPAYSQLQKLKGKDSTNEQVTCTTQQSQKPWEAKPTRMLMLQLTDGTQHIQAMEYRPIQALNANLSPGTKMVLQGTIVCRLGVLLLKPENVKVLGGEVEALVAEYTQTKVLSRLIGVEDNTVAQHSNVQEHAAGVAAGELGQALGPSDEDLLASLEENEEFSINNGVPSESGYYSRNENSSISSSTQHQTQDSIVRCWVDDDILEFSINNGVPSESGYYSRNENSSISSSTQHQTQDSIVRQTSFPMLDQTVVHVNVANNHAIEEQFDIDDELFLEEEIQRELEEMSMSQAEVTHGSTDLPTTLSATSHASSASCTSDQNNIDIPPYTYLSTILASKSRSITCVKLKSFIVTLNGNLSHSCGLWNIKAKISDGTGYLNVEFSDDVLTELIGFTVPEMKTLKKDPSQQSTLMEGLQKCQRMLTDFCGVMTVSYNPAKEEAVVLSLQDVTEEIMQSLQKLLRS
